From patent US20030133987A1, “Drug nanoparticles from template emulsions” (priority 2002, published 2003)

Assay: In-vitro dissolution, standard protocol according to USP 24 monographs
Assay type: physicochemical
Details: HPLC or UV/VIS detection, control (drug as received) in parenthesis
Experimental: The dissolution progress was measured after 5, 10, 15, and 60 minutes using either High Pressure Liquid Chromatography (HPLC) or UV/VIS detection as the analytical tools. […] For comparison, the corresponding data for the controls are given in parenthesis.

Q: Which “percent of dissolved sample, 5 min” value (5 min) does the source give for COc1ccc2cc([C@H](C)C(=O)O)ccc2c1 [Naproxen, naproxen] here?
A: Its value is 7%.

Q: And the “percent of dissolved sample, 10 min” value (10 min)?
A: Its value is 11%.

Q: And the “percent of dissolved sample, 15 min” value (15 min)?
A: The value was 15%.

Q: And the “percent of dissolved sample, 60 min” value (60 min)?
A: Its value is “(37%)”.
